This note sets out measurements from PMC12167799, “The role of human Shu complex in ATP-dependent regulation of RAD51 filaments during homologous recombination–associated DNA damage response” (The Journal of Biological Chemistry, 2025).

The exact form of at least one protein or probe is not confirmed. Negatives hold for the conditions tested.

The data set relates to SWSAP1 (hSWS1-SWSAP1, WT) + hSWS1. Put plainly: fluorescence polarization. The settings on record: FPA: 5 nM 6-FAM DNA, 37 C, recombinant protein, protein details: N-terminal 6xHis-TEV, cleaved,none, label: 3' 6-FAM on strand 1. A general note: Polarisation of emitted light reports the rotation of a fluorescent probe.

“CTTGACAAGCTTGCGCACT / AGTGCGCAAGCTTGTCAAGGCACTTTTTTTTTTTTTTTT [3'-overhang]”: the binding result (2 mM ADP) was “no binding” and the binding result (2 mM ATP) is “no binding”.
As for “TTTTTTTTTTTTTTTTTTTTCTTGACAAGCTTGCGCACT (double strand) [ds39]”, the binding result runs as follows: (2 mM ADP) “no binding”; (2 mM ATP) “no binding”.
